Reference: PMC9377714, “Unconventional tonicity-regulated nuclear trafficking of NFAT5 mediated by KPNB1, XPOT and RUVBL2” (Journal of Cell Science, 2022)

T1: FLAG–NFAT5_(132–581) (UniProt O94916)
T1 sequence: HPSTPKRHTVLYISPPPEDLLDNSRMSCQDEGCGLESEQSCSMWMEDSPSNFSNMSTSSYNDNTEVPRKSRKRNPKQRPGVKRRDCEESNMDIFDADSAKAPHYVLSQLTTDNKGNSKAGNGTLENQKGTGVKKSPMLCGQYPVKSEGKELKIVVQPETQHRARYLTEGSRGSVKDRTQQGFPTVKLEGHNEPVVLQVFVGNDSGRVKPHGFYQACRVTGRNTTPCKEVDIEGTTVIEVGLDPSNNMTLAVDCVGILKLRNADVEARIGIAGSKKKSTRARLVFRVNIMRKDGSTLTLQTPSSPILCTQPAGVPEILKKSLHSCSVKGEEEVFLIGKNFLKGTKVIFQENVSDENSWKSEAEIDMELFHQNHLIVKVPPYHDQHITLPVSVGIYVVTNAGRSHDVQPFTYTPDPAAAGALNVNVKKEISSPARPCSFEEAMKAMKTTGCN

B1: adenine nucleotide translocator 3 (SLC25A6), endogenous (protein, UniProt P12236 1-298)
chain: MTEQAISFAKDFLAGGIAAAISKTAVAPIERVKLLLQVQHASKQIAADKQYKGIVDCIVRIPKEQGVLSFWRGNLANVIRYFPTQALNFAFKDKYKQIFLGGVDKHTQFWRYFAGNLASGGAAGATSLCFVYPLDFARTRLAADVGKSGTEREFRGLGDCLVKITKSDGIRGLYQGFSVSVQGIIIYRAAYFGVYDTAKGMLPDPKNTHIVVSWMIAQTVTAVAGVVSYPFDTVRRRMMMQSGRKGADIMYTGTVDCWRKIFRDEGGKAFFKGAWSNVLRGMGGAFVLVLYDELKKVI
B2: matrin 3 (MATR3), endogenous (protein, UniProt P43243 1-847)
chain: MSKSFQQSSLSRDSQGHGRDLSAAGIGLLAAATQSLSMPASLGRMNQGTARLASLMNLGMSSSLNQQGAHSALSSASTSSHNLQSIFNIGSRGPLPLSSQHRGDADQASNILASFGLSARDLDELSRYPEDKITPENLPQILLQLKRRRTEEGPTLSYGRDGRSATREPPYRVPRDDWEEKRHFRRDSFDDRGPSLNPVLDYDHGSRSQESGYYDRMDYEDDRLRDGERCRDDSFFGETSHNYHKFDSEYERMGRGPGPLQERSLFEKKRGAPPSSNIEDFHGLLPKGYPHLCSICDLPVHSNKEWSQHINGASHSRRCQLLLEIYPEWNPDNDTGHTMGDPFMLQQSTNPAPGILGPPPPSFHLGGPAVGPRGNLGAGNGNLQGPRHMQKGRVETSRVVHIMDFQRGKNLRYQLLQLVEPFGVISNHLILNKINEAFIEMATTEDAQAAVDYYTTTPALVFGKPVRVHLSQKYKRIKKPEGKPDQKFDQKQELGRVIHLSNLPHSGYSDSAVLKLAEPYGKIKNYILMRMKSQAFIEMETREDAMAMVDHCLKKALWFQGRCVKVDLSEKYKKLVLRIPNRGIDLLKKDKSRKRSYSPDGKESPSDKKSKTDGSQKTESSTEGKEQEEKSGEDGEKDTKDDQTEQEPNMLLESEDELLVDEEEAAALLESGSSVGDETDLANLGDVASDGKKEPSDKAVKKDGSASAAAKKKLKKVDKIEELDQENEAALENGIKNEENTEPGAESSENADDPNKDTSENADGQSDENKDDYTIPDEYRIGPYQPNVPVGIDYVIPKTGFYCKLCSLFYTNEEVAKNTHCSSLPHYQKLKKFLNKLAEERRQKKET

These molecules were tested against T1, FLAG–NFAT5_(132–581) (assay: affinity purification with mass spectrometry; anti-FLAG affinity resin on lysates of transfected HeLa cells treated with hypotonic or hypertonic medium; trypsin and Lys-C digest, LTQ-Orbitrap MS/MS).
With “inosine-5'-monophosphate dehydrogenase 2 (IMPDH2), endogenous (from UniProt P12268 1-514)” the binding was “binds”. With B1 the binding was “binds”. For B2, the binding was “binds”.

Results are given in words; binding and its absence hold for the method and conditions named. Binding seen in cells or lysates may run through a third protein. Here binding means that the protein was enriched with, or labelled near, the bait; the list need not be complete. Tags and fused reporters may be left off the sequences shown.
